Test results from PMC10163288.
This is one part of the list.

B1: il2ra_site2_2erj_sap_21_mot_ems_3hM_329_000000017_0001_1_19_H_._HHH_b1_02696_0001_0000100008_0000001_0_0001 (protein)
chain: SSSSDWLHKLYRLALELLRLVAEGDEERAQELIEELKELAEETDSPNVKEIVEALERKLNSSSSS
B2: il2ra_site1_1z92_sap_19_mot_HHH_b2_03511_af2_000000113_0001_41_54_H_._HHH_b2_01993_af2_0001_0000400041_0000001_0_0001 (protein)
chain: DEAEEVIERAIEAVERGDPEEVRRLLEKLIEHTGDPALRFLLEVLERKLEAGNYKAARAILEKSR
B3: il2ra_site2_2erj_normal_mot_af86707857d369f3e1d85dcabc5f9321_0001_000000201_0001_14_29_H_._HHH_b2_07982_0001_0000700014_0000001_0 (protein)
chain: SSSSSDEEREEAEELIEEARQIPDPHRAAAVAIDAAHLAARANDEELLEEIRELFVRIYESSSSS
B4: il2ra_site1_1z92_sap_20_mot_HHH_b1_07431_000000213_0001_23_39_H_._048aa698b66f5fcbf1a9fbadf753f27c_0001_af2_0001_0000100002_0000001_0_0001_af2pred_0001_af2pred_ … (protein)
chain: NKMEELVEQILKLAGSPEKAVRFVERFAKLAERRGDPETAEELLEVAAKILGDPRLEELLEEIRK
B5: il2ra_site2_3nfp_sap_28_mot_HHH_b1_07198_000000084_0001_1_18_H_._ems_3hC_185_0001_0000100001_0000001_0_0001 (protein)
chain: SSSSDEEERLEELRERIEKLEKEGDRHEVAKLLIELTKIAAELNDEEAAKFVLRLYKELKSSSSS
B6: il2ra_site2_2erj_sap_15_mot_HHH_b1_06342_000000252_0001_1_18_H_._HHH_b2_02730_0001_0000200010_0000001_0_0001 (protein)
chain: SSSSSSSDWELFAEVAHRAWELGDFEVWSRVAELFYRYDREGDPEYREEAEELLEELRSSSSSSS
B7: il2ra_site1_2b5i_normal_mot_HHH_b1_00095_000000042_0001_1_14_H_._HHH_b1_08112_af2_0001_0000400045_0000001_0_af2pred_dldesign_0_af2pred (protein)
chain: SSSSSPVREEVERLIAEARALKAAGRRKEALETLERAHRLAAAADDEELQDEIDELAREVSSSSS
B8: il2ra_site2_3nfp_normal_mot_HHH_b1_07498_000000011_0001_1_19_H_._HHH_b2_02720_0001_0000200008_0000001_0_af2pred_0001_af2pred_1 (protein)
chain: SSSSDEEYRLAFLLALVKLAIEQNDPELVELALRRAEKLAKELNDEEVLRELEELEEKFNSSSSS
B9: il2ra_site2_2erj_normal_mot_HHH_b1_04491_000000173_0001_1_17_H_._HHH_b1_01387_0001_0000400008_0000001_0 (protein)
chain: SSSSSEEQEEAEELLEEIKKIPNPQEAAEVLLELARLAHESRDPEVHRIAWEALRYLARLSSSSS
B10: il2ra_site2_3nfp_normal_mot_2b1f115384cdfca4a5db2aa6683d1a54_0001_af2_000000285_0001_52_65_H_._0bcd393228a558932df86f9a4d776609_0001_af2_0001_0000200001_0000001 … (protein)
chain: DRELRRLAHELYERGDRDAAAVVILAIELLLEGVPPEEVKEILERAAKKAGVPPELIEQIEEAVE
B11: il2ra_site2_2erj_normal_mot_HHH_b2_03246_000000021_0001_20_36_H_._HHH_b1_02485_0001_0000200011_0000001_1_af2pred_0001_1_af2pred_swapped (protein)
chain: SSSDTEELAREAEEEARRLLEEGNPEEAFAVLLRAFQKLLELNDEEAEKIVHEVRQEVLERSSSS
B12: il2ra_site1_1z92_sap_12_mot_22370d59370c406a0c205a431f537cfa_0001_000000027_0001_1_14_H_._HHH_b2_07592_0001_0000500030_0000001_0_0001_af2pred_0001_af2pred (protein)
chain: SSSSSDIVAEFLIRHIERAIEQNNKESAERALRLLKKLAKAENDEKLEEIIEELEREVKSSSSSS
B13: il2ra_site2_2erj_normal_mot_8fa6976bf83f87873b50afdd12020151_0001_1_000000155_0001_14_31_H_._HHH_b2_02569_af2_0001_0000200027_0000001_0 (protein)
chain: SSSSSEELEEAFELLNRLIRALHEGDEELAEELLEEAEELLKHLGNEDFLRLLEKFFEQQRSSSS
B14: il2ra_site1_2b5i_sap_12_mot_HHH_b1_01240_af2_000000288_0001_42_55_H_._HHH_b1_08370_af2_0001_0000500032_0000001_0_0001 (protein)
chain: SLEEVEEELKKLVNDPEAERLIEEVVKQAERLNQPPEQLLSALFLVARARGDKELREAVQALMKK
B15: il2ra_site1_1z92_normal_mot_f45a65fa70d066dfb2bff9ecbb6071cf_0001_000000240_0001_35_50_H_._8c743c81d45538ffdda9094a56d977d2_0001_0001_0000100013_0000001_0_af2pr … (protein)
chain: DAREALEEHEEELGDPEEAVEVLFRYLEELTGDPRNAEIYLRQVLERLGIPPEEVERLLRLAKER
B16: il2ra_site1_2b5i_normal_mot_f5ff40796168375b462bec8614a1db4a_0001_1_000000138_0001_53_65_H_._HHH_b2_07452_0001_0000500039_0000001_0_af2pred_dldesign_0_af2pred (protein)
chain: SSSSDLRDIVEELIEEAKRLKEEGDLERAYKLLVLARRAARKGGLEDTVARLDELLEELRSSSSS
B17: il2ra_site1_2b5i_sap_12_mot_627d5055ffbafe6b99dea3f03486282b_0001_1_000000067_0001_18_32_H_._448c55fe706e6ec391655c6bc0ba6a29_0001_1_af2_0001_0000300012_0000001 … (protein)
chain: SSSSSSSLEELTRELLAKAAKEKDPLKRKKILLLARRTAKKAGNEELLAEVEARLASLSSSSSSS
B18: il2ra_site2_2erj_normal_mot_HHH_b1_04373_af2_000000118_0001_18_33_H_._HHH_b1_02368_af2_0001_0000200015_0000001_0 (protein)
chain: SSSSDEELREEVEELLERAREAYEEGDLELVYELAVEAAHFAARNQDEELLELILEVVERLSSSS
B19: il2ra_site2_3nfp_normal_mot_HHH_b1_01086_af2_000000264_0001_39_53_H_._HHH_b2_02085_0001_0000300023_0000001_0_af2pred_0001_af2pred_1_swapped (protein)
chain: SSSSDEELREEIEELLEEAKRIEDEARVLLLLARARLLALENQDDELARLVREVAKELRSSSSSS

target: il2ra, P01589; assay: yeast display titration

Apparent Kd, inactive:
B1 > 2.63 nM
B2 no binding seen
B3 no binding seen
B4 no binding seen
B5 no binding seen
B6 no binding seen
B7 no binding seen
B8 no binding seen
B9 no binding seen
B10 no binding seen
B11 no binding seen
B12 no binding seen
B13 no binding seen
B14 no binding seen
B15 no binding seen
B16 no binding seen
B17 no binding seen
B18 no binding seen
B19 no binding seen

Two entries picked at random from the list so far, as already listed:
Apparent Kd, inactive:
B17 no binding seen
B3 no binding seen
